Consider 1 substance from patent US20110008340A1.

By UniProt entry, the sequences of proteins in these tests, tags left out. Where a name states a change or a piece, a line headed by the entry shows the natural chain unless it says otherwise. Residues count along the entry.
UniProt P00746, residues 26-253: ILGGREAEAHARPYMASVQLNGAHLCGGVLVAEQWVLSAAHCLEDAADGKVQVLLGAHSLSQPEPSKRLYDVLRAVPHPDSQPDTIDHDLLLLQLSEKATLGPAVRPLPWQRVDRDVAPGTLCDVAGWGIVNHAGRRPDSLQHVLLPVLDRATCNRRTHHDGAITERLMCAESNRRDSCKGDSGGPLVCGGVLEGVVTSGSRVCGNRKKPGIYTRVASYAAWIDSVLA
UniProt P27918: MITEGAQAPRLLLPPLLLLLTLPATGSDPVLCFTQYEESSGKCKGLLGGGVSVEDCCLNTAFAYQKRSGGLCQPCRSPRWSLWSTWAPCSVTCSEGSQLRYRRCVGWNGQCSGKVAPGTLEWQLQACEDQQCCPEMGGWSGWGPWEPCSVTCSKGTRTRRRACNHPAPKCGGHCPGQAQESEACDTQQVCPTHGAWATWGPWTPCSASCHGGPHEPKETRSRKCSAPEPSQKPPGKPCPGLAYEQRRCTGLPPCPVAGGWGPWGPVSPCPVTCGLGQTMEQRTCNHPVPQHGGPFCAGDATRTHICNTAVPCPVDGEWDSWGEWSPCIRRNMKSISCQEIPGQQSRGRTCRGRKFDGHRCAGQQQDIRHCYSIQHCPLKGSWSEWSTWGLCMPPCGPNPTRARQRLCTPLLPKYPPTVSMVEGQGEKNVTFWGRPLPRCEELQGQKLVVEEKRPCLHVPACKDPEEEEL

No constants are given. Whether binding was seen depends on the method and setting. Some binding calls cover weakened binding; strength is not graded here.

This assay concerns the target factor D (UniProt P00746). Briefly: direct binding experiments.

In the case of “human properdin (from UniProt P27918 29-469)”, the binding result was “binds”.
